Test results as given in patent publication US20190216751A1, “Compositions and Methods for the Treatment and Prevention of Cancer” (California State University Northridge, priority 2017, published 2019).
At least one compound was matched to its structure with a doubt left.

Assays:
MDA-MB-468 cells = experiment: Cell proliferation assay (CellTiter 96 AQueous One, MTS); type: cell-based, human; settings: with or without GC7 1 μM pretreatment, TubA 0.1 nM to 100 μM
Description: (§1) The next research questions revolved around asking how TGFβ is regulating eIF5A and what other proteins might be involved to completely block TGFβ-induced EMT. This led to histone deacetylase enzyme 6 (HDAC6). HDAC6 has been previously reported to be responsible for the deacetylation of eIF5A in the nucleus in order to make it readily available for hypusination and later transport out in the cytoplasm for functioning as a translation factor. To determine if it were possible to further increase the efficacy or potency of GC7, the inventors co-treated with Tubastatin A (an HDAC6 inhibitor) in 4T1 and 67NR cells as well as MDA-MB-468 cells which initially were not very sensitive to GC7. Triple negative human breast cancer cell line, BT547, was also used to see if another cell line representative of this breast cancer subtype was sensitive towards DHPS and HDAC6 inhibition. (FIGS. 5A and 5B). […] MDA-MB-468 and BT549 cells remained to be insensitive to TubA with or without GC7 pretreatment (FIG. 5A). […]
(§2) The CellTiter 96® AQueous One Solution (Promega) was used to perform cell proliferation experiments. […] Absorbance readings were measured at 490 nm wavelength at 1.5, 2 and 3 hours (absorbance is directly proportional to the number of living cells).

BT549 cells = experiment: as above; type: cell-based, human; settings: with or without GC7 1 μM pretreatment, TubA 0.1 nM to 100 μM
Description: as §1, §2

[1] = test system: ZEB1 expression in 4T1 cells; experiment: qPCR ZEB1 mRNA, TGFβ-induced EMT; type: cell-based, mouse; settings: 10 μM each drug, re-treated with TGFβ 2.5 ng/mL at 48 hours, 96-hour time point
Description: The pathway in which the inventors are interested in targeting eIF5A is in the context of TGFβ-induced EMT and TGFβ is a well-characterized inducer of EMT. […] Phase-contrast images are shown to the right of the western blot to indicate a shift in morphology after treatment with TGFβ. […] Since TGFβ can induce PEAK1 upregulation, while in contrast, hypusinated eIF5A promotes PEAK1 translation, the inventors sought to see if TGFβ alone can upregulate hypusinated eIF5A. Post-translational modifications can occur relatively fast. Therefore short-term treatments of TGFβ on 4T1, 67NR and MCF10CA1a cells were performed initially. Protein lysates were collected after 10, 30 and 120 minutes of treatment and immunoblotted for hypusine, total eIF5A and β-actin (FIG. 4B). […] Relative band intensity is graphed to the right of the western blot in which the ratio between hypusine to total eIF5A is compared first between treated samples to control samples then a ratio is calculated comparing each time point relative to 10 minutes as a starting time point of reference. […] The inventors were also interested in what genes were altered at the transcriptional level when dual treating with TGFβ and GC7 at the same time to block EMT. […]

[2] = test system: eIF5A localization in 4T1 cells; experiment: Immunofluorescence, subcellular localization of total eIF5A; type: cell-based, mouse; settings: 10 μM each drug
Description: as §1, with “5B). Here, are shown cell viability graphs for these four cell lines pretreated with GC7 at 1 μM and after 12 hours were exposed to various concentrations of Tubastatin A (TubA) ranging from 0.1 nM to 100 μM.” for “5B).”

4T1 cells = experiment: Cell proliferation assay (CellTiter 96 AQueous One, MTS); type: cell-based, mouse; settings: GC7 1 μM pretreatment 12 hours, TubA 0.1 nM to 100 μM, 72 hours
Description: (§3) The next research questions revolved around asking how TGFβ is regulating eIF5A and what other proteins might be involved to completely block TGFβ-induced EMT. This led to histone deacetylase enzyme 6 (HDAC6). HDAC6 has been previously reported to be responsible for the deacetylation of eIF5A in the nucleus in order to make it readily available for hypusination and later transport out in the cytoplasm for functioning as a translation factor. To determine if it were possible to further increase the efficacy or potency of GC7, the inventors co-treated with Tubastatin A (an HDAC6 inhibitor) in 4T1 and 67NR cells as well as MDA-MB-468 cells which initially were not very sensitive to GC7. Triple negative human breast cancer cell line, BT547, was also used to see if another cell line representative of this breast cancer subtype was sensitive towards DHPS and HDAC6 inhibition. (FIGS. 5A and 5B). Here, are shown cell viability graphs for these four cell lines pretreated with GC7 at 1 μM and after 12 hours were exposed to various concentrations of Tubastatin A (TubA) ranging from 0.1 nM to 100 μM. […]
as §2

67NR cells = experiment: as above; type: cell-based, mouse; settings: GC7 1 μM pretreatment 12 hours, TubA 0.1 nM to 100 μM, 72 hours
Description: as §3, §2

## CN1CCc2c(c3ccccc3n2Cc2ccc(C(=O)NO)cc2)C1 [TubA, Tubastatin A]
MDA-MB-468 cells
  sensitivity to TubA (cell viability): insensitive
BT549 cells
  sensitivity to TubA (cell viability): insensitive
[1]
  TGFβ-induced EMT, ZEB1 mRNA (qPCR): blocks TGFβ-induced EMT by decreasing a mesenchymal marker, ZEB1
[2]; 48 hours
  localization of total eIF5A: predominantly cytoplasmic
[2]; with or without TGFβ, 96-hour time point
  localization of eIF5A: accumulated at the nucleus
4T1 cells
  change of potency of TubA by GC7 pretreatment (cell viability): dramatically increased
67NR cells
  change of potency of TubA by GC7 pretreatment (cell viability): this effect was not seen
